Data on 1 substance can be found in publication PMC4987395.

The assay addresses T1, Arabidopsis thaliana plasmodesmata-located protein 1 (PDLP1) fused to RFP (Arabidopsis thaliana) (UniProt Q8GXV7).
T1 sequence: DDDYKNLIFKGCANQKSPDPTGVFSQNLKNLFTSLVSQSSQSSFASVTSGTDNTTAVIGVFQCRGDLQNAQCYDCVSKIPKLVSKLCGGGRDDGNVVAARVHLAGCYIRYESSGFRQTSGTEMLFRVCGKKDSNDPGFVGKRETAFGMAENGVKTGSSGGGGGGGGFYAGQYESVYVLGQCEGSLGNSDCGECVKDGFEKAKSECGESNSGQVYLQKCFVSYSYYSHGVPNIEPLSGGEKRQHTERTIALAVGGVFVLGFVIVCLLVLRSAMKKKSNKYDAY
The assay can be described thus: FRET or BRET; FRET-FLIM: GFP on the MP as donor, RFP on PDLP1 as acceptor; co-expressed by agroinfiltration in N. benthamiana leaves, measured at spots in plasmodesmata; donor fluorescence lifetime by time-correlated single-photon counting. Background: In BRET a luciferase serves as donor, and the signal depends on an acceptor being close.

Results are given in words; binding and its absence hold for the method and conditions named. Binding seen in cells or lysates may run through a third protein. Binding can be weak; no strength is given. Sequences can lack the tags named with a protein.

Consider “grapevine fanleaf virus (GFLV) 2B movement protein with GFP fused at its N-terminus”, for which the binding result was “binds”.
